The supplement of paper PMC10849652
Some of the results follow.

Amino acid sequences for entries named in this document (tags omitted). A change or cut given only in a name is not applied to a line headed by its entry.
UniProt O75152: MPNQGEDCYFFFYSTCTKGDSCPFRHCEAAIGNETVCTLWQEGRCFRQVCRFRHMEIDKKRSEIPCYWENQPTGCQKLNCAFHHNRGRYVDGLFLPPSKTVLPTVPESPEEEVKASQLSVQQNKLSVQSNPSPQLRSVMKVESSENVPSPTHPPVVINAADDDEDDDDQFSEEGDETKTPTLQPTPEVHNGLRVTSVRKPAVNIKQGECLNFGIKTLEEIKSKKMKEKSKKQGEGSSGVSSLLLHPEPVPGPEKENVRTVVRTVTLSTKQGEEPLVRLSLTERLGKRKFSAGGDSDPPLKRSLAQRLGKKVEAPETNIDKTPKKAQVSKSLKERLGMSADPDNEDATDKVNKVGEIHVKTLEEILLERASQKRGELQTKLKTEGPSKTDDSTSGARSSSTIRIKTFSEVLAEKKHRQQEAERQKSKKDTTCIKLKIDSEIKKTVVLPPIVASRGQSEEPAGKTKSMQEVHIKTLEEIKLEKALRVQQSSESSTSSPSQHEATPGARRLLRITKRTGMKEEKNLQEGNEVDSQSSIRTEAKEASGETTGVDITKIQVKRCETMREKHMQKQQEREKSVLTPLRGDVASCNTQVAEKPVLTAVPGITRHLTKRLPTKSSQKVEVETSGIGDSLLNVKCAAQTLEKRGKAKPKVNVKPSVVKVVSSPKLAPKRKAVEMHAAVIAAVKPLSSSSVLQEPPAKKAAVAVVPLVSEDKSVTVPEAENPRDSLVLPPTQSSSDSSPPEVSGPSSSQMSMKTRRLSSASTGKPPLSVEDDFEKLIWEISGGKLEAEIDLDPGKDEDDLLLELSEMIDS
UniProt Q96EC8: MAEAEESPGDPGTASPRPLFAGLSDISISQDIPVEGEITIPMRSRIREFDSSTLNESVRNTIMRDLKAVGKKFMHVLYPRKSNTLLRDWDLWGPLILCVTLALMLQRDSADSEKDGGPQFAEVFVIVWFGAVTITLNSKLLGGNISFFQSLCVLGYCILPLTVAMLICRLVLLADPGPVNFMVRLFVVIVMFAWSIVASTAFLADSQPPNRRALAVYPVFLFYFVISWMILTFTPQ
UniProt Q16600: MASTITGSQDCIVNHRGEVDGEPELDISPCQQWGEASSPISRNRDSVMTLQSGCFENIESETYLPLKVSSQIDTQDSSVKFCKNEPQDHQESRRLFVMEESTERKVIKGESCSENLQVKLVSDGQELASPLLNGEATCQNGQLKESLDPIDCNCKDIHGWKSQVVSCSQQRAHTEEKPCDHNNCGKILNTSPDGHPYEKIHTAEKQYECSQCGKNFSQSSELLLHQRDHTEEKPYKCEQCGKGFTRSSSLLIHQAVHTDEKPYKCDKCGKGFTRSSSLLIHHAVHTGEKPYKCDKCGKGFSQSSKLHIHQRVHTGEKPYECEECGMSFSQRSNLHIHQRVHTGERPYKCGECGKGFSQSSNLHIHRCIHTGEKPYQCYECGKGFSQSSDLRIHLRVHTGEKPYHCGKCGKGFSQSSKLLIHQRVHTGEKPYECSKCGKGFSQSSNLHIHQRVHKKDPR
UniProt Q9H2Y7: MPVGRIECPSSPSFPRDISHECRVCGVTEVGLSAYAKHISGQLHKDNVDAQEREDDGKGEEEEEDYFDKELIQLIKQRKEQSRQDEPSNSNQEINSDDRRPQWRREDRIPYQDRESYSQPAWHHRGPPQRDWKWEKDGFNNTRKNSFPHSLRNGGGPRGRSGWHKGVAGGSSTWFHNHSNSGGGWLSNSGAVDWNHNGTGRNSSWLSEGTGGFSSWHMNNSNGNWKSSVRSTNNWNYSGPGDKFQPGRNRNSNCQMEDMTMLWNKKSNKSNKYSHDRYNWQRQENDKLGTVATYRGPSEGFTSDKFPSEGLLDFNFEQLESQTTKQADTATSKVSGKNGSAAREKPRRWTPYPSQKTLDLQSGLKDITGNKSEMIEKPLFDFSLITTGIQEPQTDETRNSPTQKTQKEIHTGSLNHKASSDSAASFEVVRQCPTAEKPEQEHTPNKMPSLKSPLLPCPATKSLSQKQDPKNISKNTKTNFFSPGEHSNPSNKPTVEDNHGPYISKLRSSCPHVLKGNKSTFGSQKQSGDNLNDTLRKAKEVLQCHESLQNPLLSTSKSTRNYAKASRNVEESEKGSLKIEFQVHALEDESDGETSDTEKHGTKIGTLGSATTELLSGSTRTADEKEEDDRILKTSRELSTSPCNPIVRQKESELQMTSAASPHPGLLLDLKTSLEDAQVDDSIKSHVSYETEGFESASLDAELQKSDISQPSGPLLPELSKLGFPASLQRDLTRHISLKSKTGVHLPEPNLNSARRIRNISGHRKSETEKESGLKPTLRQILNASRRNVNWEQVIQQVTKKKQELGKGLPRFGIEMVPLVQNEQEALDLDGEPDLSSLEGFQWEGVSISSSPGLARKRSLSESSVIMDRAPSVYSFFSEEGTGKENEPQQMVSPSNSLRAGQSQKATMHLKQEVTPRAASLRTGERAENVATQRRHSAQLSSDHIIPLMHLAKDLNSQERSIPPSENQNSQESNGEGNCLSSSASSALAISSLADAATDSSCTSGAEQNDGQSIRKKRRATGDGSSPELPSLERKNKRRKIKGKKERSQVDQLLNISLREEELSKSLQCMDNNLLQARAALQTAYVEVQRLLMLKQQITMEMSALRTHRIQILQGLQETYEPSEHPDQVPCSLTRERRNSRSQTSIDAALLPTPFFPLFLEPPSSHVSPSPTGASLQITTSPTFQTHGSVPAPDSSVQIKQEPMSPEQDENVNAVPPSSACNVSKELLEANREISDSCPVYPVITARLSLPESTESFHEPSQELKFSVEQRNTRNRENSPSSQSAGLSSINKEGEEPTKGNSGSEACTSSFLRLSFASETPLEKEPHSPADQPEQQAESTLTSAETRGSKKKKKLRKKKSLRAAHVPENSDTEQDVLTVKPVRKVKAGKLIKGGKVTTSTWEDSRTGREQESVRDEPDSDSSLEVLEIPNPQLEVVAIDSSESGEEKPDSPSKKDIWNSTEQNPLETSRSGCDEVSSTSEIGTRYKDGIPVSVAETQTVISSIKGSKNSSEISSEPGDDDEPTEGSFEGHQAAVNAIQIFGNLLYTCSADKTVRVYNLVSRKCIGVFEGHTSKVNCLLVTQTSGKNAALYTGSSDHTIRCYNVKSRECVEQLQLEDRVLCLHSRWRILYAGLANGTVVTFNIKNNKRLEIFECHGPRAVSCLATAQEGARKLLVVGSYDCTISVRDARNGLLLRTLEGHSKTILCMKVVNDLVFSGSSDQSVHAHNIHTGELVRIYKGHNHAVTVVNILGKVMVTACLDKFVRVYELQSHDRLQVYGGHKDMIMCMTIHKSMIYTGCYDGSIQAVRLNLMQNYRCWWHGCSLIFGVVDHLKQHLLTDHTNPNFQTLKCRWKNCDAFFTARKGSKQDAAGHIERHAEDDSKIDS
UniProt P63104: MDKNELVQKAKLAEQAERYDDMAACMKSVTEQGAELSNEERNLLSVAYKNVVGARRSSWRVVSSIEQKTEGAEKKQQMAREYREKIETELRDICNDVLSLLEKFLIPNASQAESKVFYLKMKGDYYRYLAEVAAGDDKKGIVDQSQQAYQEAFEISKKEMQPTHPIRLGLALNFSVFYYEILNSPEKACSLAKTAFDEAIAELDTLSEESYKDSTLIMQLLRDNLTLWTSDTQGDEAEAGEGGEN
UniProt Q96GR4: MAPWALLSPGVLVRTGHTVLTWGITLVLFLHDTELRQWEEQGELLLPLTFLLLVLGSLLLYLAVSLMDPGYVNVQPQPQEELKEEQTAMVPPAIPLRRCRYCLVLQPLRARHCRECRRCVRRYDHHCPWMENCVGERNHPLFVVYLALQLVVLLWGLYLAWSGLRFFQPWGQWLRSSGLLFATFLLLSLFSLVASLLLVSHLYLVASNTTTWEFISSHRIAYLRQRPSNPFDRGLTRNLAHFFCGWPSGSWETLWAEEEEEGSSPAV
UniProt Q9ULU4: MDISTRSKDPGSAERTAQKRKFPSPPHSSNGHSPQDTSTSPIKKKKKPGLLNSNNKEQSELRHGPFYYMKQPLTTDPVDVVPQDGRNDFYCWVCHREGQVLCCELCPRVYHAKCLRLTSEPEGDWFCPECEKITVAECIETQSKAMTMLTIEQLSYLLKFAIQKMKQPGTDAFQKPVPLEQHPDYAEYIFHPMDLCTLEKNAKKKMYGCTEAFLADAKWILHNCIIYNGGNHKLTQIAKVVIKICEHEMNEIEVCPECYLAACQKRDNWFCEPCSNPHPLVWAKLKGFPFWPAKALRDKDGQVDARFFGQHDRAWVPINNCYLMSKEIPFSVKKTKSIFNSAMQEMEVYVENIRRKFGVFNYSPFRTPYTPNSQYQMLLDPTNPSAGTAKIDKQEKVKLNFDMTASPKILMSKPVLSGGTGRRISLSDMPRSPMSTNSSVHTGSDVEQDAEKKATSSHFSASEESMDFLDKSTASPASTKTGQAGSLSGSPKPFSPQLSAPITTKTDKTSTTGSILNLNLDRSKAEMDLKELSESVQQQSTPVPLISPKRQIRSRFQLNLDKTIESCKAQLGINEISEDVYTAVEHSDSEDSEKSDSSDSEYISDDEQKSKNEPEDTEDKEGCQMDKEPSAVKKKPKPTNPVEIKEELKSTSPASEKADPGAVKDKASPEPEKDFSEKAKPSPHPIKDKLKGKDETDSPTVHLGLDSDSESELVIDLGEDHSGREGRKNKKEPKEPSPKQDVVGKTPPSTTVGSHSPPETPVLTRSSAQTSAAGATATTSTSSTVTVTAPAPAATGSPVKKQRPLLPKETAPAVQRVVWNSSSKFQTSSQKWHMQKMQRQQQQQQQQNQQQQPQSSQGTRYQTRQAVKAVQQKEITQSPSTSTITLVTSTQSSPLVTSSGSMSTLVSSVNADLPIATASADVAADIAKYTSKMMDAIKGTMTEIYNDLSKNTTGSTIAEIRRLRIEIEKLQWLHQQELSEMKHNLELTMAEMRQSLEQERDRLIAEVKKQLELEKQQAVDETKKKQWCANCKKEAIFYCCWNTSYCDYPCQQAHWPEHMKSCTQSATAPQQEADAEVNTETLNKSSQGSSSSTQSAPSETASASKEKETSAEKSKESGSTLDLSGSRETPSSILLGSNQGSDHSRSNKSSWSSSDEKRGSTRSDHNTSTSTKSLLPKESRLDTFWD
UniProt Q9ULC8: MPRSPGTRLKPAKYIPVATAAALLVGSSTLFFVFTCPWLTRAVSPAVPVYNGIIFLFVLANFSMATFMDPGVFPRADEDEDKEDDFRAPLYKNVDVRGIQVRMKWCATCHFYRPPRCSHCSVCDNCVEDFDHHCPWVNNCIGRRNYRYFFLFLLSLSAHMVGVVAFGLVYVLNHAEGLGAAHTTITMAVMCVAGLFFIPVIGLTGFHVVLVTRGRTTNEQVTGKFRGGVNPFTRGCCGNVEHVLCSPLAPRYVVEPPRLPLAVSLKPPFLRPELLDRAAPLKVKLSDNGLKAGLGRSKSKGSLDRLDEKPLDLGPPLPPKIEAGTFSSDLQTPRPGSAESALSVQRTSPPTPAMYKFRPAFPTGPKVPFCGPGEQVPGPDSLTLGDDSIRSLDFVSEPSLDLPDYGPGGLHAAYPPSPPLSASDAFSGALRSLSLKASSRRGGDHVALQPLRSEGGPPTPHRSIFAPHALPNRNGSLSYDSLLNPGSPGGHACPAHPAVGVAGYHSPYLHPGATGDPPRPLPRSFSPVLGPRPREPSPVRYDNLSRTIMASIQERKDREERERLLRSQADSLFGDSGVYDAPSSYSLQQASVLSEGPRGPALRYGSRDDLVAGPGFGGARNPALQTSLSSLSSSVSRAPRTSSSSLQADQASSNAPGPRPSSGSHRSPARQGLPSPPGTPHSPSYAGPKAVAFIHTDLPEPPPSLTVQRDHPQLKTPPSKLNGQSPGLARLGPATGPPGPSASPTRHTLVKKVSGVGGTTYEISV
UniProt P67809, whole entry, looked up: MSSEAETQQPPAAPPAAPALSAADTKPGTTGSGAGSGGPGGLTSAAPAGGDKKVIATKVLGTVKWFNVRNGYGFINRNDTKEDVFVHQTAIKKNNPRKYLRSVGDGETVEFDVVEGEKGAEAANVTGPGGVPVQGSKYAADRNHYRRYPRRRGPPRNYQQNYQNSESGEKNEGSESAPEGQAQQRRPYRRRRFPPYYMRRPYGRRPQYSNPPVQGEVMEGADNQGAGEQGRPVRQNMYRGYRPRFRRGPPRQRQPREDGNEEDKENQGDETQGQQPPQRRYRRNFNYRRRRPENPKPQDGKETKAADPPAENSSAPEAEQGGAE
UniProt Q9Y397: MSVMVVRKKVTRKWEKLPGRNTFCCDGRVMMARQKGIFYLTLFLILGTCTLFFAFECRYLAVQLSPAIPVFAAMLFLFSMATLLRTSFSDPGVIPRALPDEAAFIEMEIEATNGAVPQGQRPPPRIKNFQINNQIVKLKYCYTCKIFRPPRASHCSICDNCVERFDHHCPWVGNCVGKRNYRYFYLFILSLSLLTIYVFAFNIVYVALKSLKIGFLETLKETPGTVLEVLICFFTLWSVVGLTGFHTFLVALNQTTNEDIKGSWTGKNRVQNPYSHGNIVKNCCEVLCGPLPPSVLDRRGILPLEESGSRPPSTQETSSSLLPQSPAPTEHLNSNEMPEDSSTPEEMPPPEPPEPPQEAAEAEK

Legend:
Experiment in all cases: log2 fold change, soluble protein after heating vs DMSO (PISA); higher = thermal stabilisation; K562 cells, 10 uM, 30 min; active = over 0.2 and 3.5 SD of the protein, either way, in both replicates (recomputed)
saracatinib = compound: CN1CCN(CCOc2cc(OC3CCOCC3)c3c(Nc4c(Cl)ccc5c4OCO5)ncnc3c2)CC1 [saracatinib]
Outline: (§1)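 Quantification of soluble protein used TMTpro 16plex LC-MS/MS, with channel sums equalised. Samples were the supernatant after 21,000xg for 90 min of pooled aliquots from K562 cells (2×10^6 cells/mL) treated with 10 μM compound for 30 min, heated for 3 min over 48°C-58°C, and extracted in PBS with 0.5% NP-40 at 4°C. Values, from duplicates, describe thermal stability against control samples on a log2 fold-change scale.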

alvocidib = compound: CN1CC[C@H](c2c(O)cc(O)c3c(=O)cc(-c4ccccc4Cl)oc23)[C@H](O)C1 [alvocidib]
Outline: as §1

Tubastatin A = compound: CN1CCc2c(c3ccccc3n2Cc2ccc(C(=O)NO)cc2)C1 [Tubastatin A]
Outline: as §1

[1] = compound: CNC(=O)C1=CC=CC=C1NC2=NC(=NC=C2Cl)NC3=C(C=C(C=C3)N4CCOCC4)OC
Outline: as §1

defactinib = compound: CNC(=O)c1ccc(Nc2ncc(C(F)(F)F)c(NCc3nccnc3N(C)S(C)(=O)=O)n2)cc1 [defactinib]
Outline: as §1

rucaparib = compound: CNCc1ccc(-c2[nH]c3cc(F)cc4c3c2CCNC4=O)cc1 [rucaparib]
Outline: as §1

[2] = compound: CNc1nc(-c2ccc3c(N)n[nH]c3c2)cc(N2C[C@@H](C(=O)NC3CCCCC3)CC[C@H]2C)n1
Outline: as §1

encorafenib = compound: COC(=O)N[C@@H](C)CNc1nccc(-c2cn(C(C)C)nc2-c2cc(Cl)cc(NS(C)(=O)=O)c2F)n1 [encorafenib]
Outline: as §1

[3] = compound: COC(=O)[C@H](CCSC)NC(=O)C1=C(C=C(C=C1)NC[C@H](CS)N)C2=CC=CC=C2
Outline: as §1

[4] = compound: COC1=CC=C(C=C1)CN2C=CC3=C2C=C(C=C3)C(=O)NO
Outline: as §1

zotarolimus = compound: CO[C@H]1C[C@@H]2CC[C@@H](C)[C@@](O)(O2)C(=O)C(=O)N2CCCC[C@H]2C(=O)O[C@H]([C@H](C)C[C@@H]2CC[C@H](n3cnnn3)[C@H](OC)C2)CC(=O)[C@H](C)/C=C(\C)[C@@H](O)[C@@H](OC)C(=O)[C@H](C)C[C@H](C)/C=C/C=C/C=C/1C [zotarolimus]
Outline: as §1

idasanutlin = compound: COc1cc(C(=O)O)ccc1NC(=O)[C@@H]1N[C@@H](CC(C)(C)C)[C@](C#N)(c2ccc(Cl)cc2F)[C@H]1c1cccc(Cl)c1F [idasanutlin]
Outline: as §1

alisertib = compound: COc1cc(Nc2ncc3c(n2)-c2ccc(Cl)cc2C(c2c(F)cccc2OC)=NC3)ccc1C(=O)O [alisertib]
Outline: as §1

[5] = compound: COc1cc2nc(-c3cc(F)ccc3O)nc(N[C@@H]3CNC[C@H]3C(C)(C)O)c2cc1OC
Outline: as §1

gefitinib = compound: COc1cc2ncnc(Nc3ccc(F)c(Cl)c3)c2cc1OCCCN1CCOCC1 [gefitinib]
Outline: as §1

[6] = compound: COc1cccc2cc(-c3nc([C@H]4CC[C@H](C(=O)O)CC4)n4ncnc(N)c34)[nH]c12
Outline: as §1

lapatinib = compound: CS(=O)(=O)CCNCc1ccc(-c2ccc3ncnc(Nc4ccc(OCc5cccc(F)c5)c(Cl)c4)c3c2)o1 [lapatinib]
Outline: as §1

pictilisib = compound: CS(=O)(=O)N1CCN(Cc2cc3nc(-c4cccc5[nH]ncc45)nc(N4CCOCC4)c3s2)CC1 [pictilisib]
Outline: as §1

sotrastaurin = compound: CN1CCN(c2nc(C3=C(c4c[nH]c5ccccc45)C(=O)NC3=O)c3ccccc3n2)CC1 [sotrastaurin]
Outline: as §1

filanesib = compound: CON(C)C(=O)N1N=C(c2cc(F)ccc2F)S[C@@]1(CCCN)c1ccccc1 [filanesib]
Outline: as §1

Measured: log2 fold change

ZC3H13 (UniProt Q5T200)
inactive: saracatinib -0.428 | alvocidib 0.203 | Tubastatin A -0.095 | [1] 0.08 | defactinib 0.084 | rucaparib 0.129 | [2] -0.202 | encorafenib -0.374 | [3] 0.206 | [4] -0.077 | zotarolimus -0.303 | idasanutlin 0.227 | alisertib -0.049 | [5] 0.086 | gefitinib 0.012 | [6] 0.625 | lapatinib -0.16 | pictilisib 0.164

YIPF4 (UniProt Q9BSR8)
inactive: saracatinib 0.072 | sotrastaurin 0.113 | Tubastatin A -0.028 | [1] 0.062 | defactinib -0.016 | rucaparib -0.028 | [2] -0.082 | encorafenib -0.038 | [3] 0.088 | [4] -0.098 | filanesib 0.077 | zotarolimus 0.015 | idasanutlin -0.049 | alisertib -0.134 | [5] -0.094 | gefitinib 0.038 | [6] 0.06 | lapatinib -0.13 | pictilisib 0.15

ZNF22 (UniProt P17026)
inactive: saracatinib -0.139 | alvocidib 0.18 | Tubastatin A 0.195 | [1] 0.135 | [2] 0.017 | [4] -0.226 | zotarolimus -0.03

ZC3H11A (UniProt O75152)
inactive: saracatinib -0.423 | alvocidib -0.028 | defactinib 0 | rucaparib 0.136 | [2] 0.182 | encorafenib 0.141 | [3] 0.067 | zotarolimus 0.138 | alisertib -0.032 | [5] -0.077 | gefitinib 0.035 | [6] -0.131 | lapatinib 0.075 | pictilisib 0.045

YIPF6 (UniProt Q96EC8)
inactive: saracatinib -0.023 | Tubastatin A -0.01 | [1] -0.006 | defactinib -0.041 | rucaparib 0.055 | [2] -0.039 | encorafenib -0.042 | [3] 0.041 | [4] -0.019 | filanesib -0.08 | zotarolimus -0.026 | idasanutlin -0.008 | alisertib 0.419 | [5] 0.043 | gefitinib 0.005 | [6] 0.02 | lapatinib 0.061 | pictilisib 0.107
active: sotrastaurin -0.648

Four consecutive records from above, for reference:
YIPF4 (UniProt Q9BSR8)
inactive: saracatinib 0.072 | sotrastaurin 0.113 | Tubastatin A -0.028 | [1] 0.062 | defactinib -0.016 | rucaparib -0.028 | [2] -0.082 | encorafenib -0.038 | [3] 0.088 | [4] -0.098 | filanesib 0.077 | zotarolimus 0.015 | idasanutlin -0.049 | alisertib -0.134 | [5] -0.094 | gefitinib 0.038 | [6] 0.06 | lapatinib -0.13 | pictilisib 0.15

ZNF22 (UniProt P17026)
inactive: saracatinib -0.139 | alvocidib 0.18 | Tubastatin A 0.195 | [1] 0.135 | [2] 0.017 | [4] -0.226 | zotarolimus -0.03

ZC3H11A (UniProt O75152)
inactive: saracatinib -0.423 | alvocidib -0.028 | defactinib 0 | rucaparib 0.136 | [2] 0.182 | encorafenib 0.141 | [3] 0.067 | zotarolimus 0.138 | alisertib -0.032 | [5] -0.077 | gefitinib 0.035 | [6] -0.131 | lapatinib 0.075 | pictilisib 0.045

YIPF6 (UniProt Q96EC8)
inactive: saracatinib -0.023 | Tubastatin A -0.01 | [1] -0.006 | defactinib -0.041 | rucaparib 0.055 | [2] -0.039 | encorafenib -0.042 | [3] 0.041 | [4] -0.019 | filanesib -0.08 | zotarolimus -0.026 | idasanutlin -0.008 | alisertib 0.419 | [5] 0.043 | gefitinib 0.005 | [6] 0.02 | lapatinib 0.061 | pictilisib 0.107
active: sotrastaurin -0.648

Continued:

YIPF5 isoform 3 (UniProt Q969M3)
inactive: saracatinib 0.007 | sotrastaurin 0.034 | Tubastatin A -0.103 | [1] 0.088 | defactinib -0.019 | rucaparib 0 | [2] -0.115 | encorafenib 0.012 | [3] 0.046 | [4] -0.065 | filanesib 0.017 | zotarolimus 0.006 | idasanutlin -0.051 | alisertib -0.009 | [5] 0.13 | gefitinib 0.024 | [6] 0.017 | lapatinib -0.163 | pictilisib 0.027

ZNF239 (UniProt Q16600)
inactive: saracatinib 0.052 | sotrastaurin 0.144 | Tubastatin A 0.091 | [1] -0.055 | defactinib -0.014 | [2] -0.055 | [3] 0.002 | [4] -0.178 | filanesib 0.051 | zotarolimus -0.483 | idasanutlin -0.031 | alisertib -0.004 | [5] 0.024 | gefitinib -0.267 | [6] 0.548 | lapatinib -0.095 | pictilisib -0.249

ZKSCAN8 (UniProt Q15776)
inactive: saracatinib -0.382 | sotrastaurin -0.14 | Tubastatin A 0.107 | defactinib -0.242 | rucaparib 0.196 | [2] 0.067 | encorafenib 0.117 | [3] 0.009 | filanesib 0.265 | [5] -0.212 | lapatinib 0.123 | pictilisib -0.143

XRCC1 (UniProt P18887)
inactive: saracatinib 0.008 | sotrastaurin -0.264 | Tubastatin A 0.055 | [1] 0.05 | [2] 0.148 | [4] -0.129 | filanesib 0.088 | zotarolimus -0.018 | idasanutlin -0.045 | pictilisib -0.065

ZNF106 (UniProt Q9H2Y7)
inactive: saracatinib -0.03 | sotrastaurin -0.194 | defactinib -0.103 | rucaparib -0.052 | [2] 0.093 | encorafenib -0.046 | [3] -0.02 | filanesib 0.071 | [5] 0.298 | gefitinib 0.034 | lapatinib -0.383

ZC3H8 (UniProt Q8N5P1)
inactive: saracatinib 0.088 | sotrastaurin 0.025 | Tubastatin A -0.034 | [1] 0.019 | defactinib 0.228 | rucaparib 0.19 | [2] 0.012 | encorafenib -0.01 | [3] -0.009 | [4] -0.128 | filanesib 0.191 | zotarolimus 0.029 | idasanutlin 0.109 | alisertib -0.082 | [5] 0.05 | gefitinib 0.021 | [6] -0.02 | lapatinib 0 | pictilisib -0.007

YWHAZ (UniProt P63104)
inactive: saracatinib 0.064 | sotrastaurin -0.01 | Tubastatin A -0.004 | [1] -0.013 | defactinib 0 | rucaparib -0.041 | [2] 0.031 | encorafenib -0.031 | [3] -0.002 | [4] -0.002 | filanesib -0.027 | zotarolimus 0.107 | idasanutlin -0.026 | alisertib -0.028 | [5] -0.163 | gefitinib 0.005 | [6] -0.052 | lapatinib 0.197 | pictilisib -0.037

ZDHHC12 isoform 3 (UniProt Q96GR4)
inactive: saracatinib 0.378 | Tubastatin A 0.099 | defactinib 0.053 | [2] -0.09 | [3] 0.004 | [4] -0.018 | idasanutlin -0.078 | [5] 0.021 | lapatinib -0.133

ZER1 (UniProt Q7Z7L7)
inactive: saracatinib 0.013 | sotrastaurin 0.078 | Tubastatin A 0.048 | [1] -0.164 | defactinib 0.027 | rucaparib -0.271 | [2] -0.245 | encorafenib 0.01 | [3] 0.035 | [4] -0.236 | filanesib -0.006 | zotarolimus -0.035 | idasanutlin -0.188 | alisertib -0.006 | [5] 0.048 | gefitinib -0.031 | [6] 0.067 | lapatinib -0.057 | pictilisib 0.085

ZMYND8 isoform 19 (UniProt Q9ULU4)
inactive: saracatinib -0.052 | alvocidib -0.185 | [1] -0.018 | rucaparib -0.197 | [2] 0.019 | encorafenib 0.077 | [4] -0.138 | zotarolimus 0.02 | [5] -0.155 | lapatinib 0.071

ZDHHC8 isoform 3 (UniProt Q9ULC8)
inactive: saracatinib 0.188 | Tubastatin A 0.058 | [2] 0 | [4] 0.07 | gefitinib 0.023

ZBTB21 (UniProt Q9ULJ3)
inactive: saracatinib -0.149 | sotrastaurin 0.022 | Tubastatin A -0.132 | [1] -0.012 | defactinib -0.033 | [2] -0.111 | [3] -0.022 | [4] 0.026 | filanesib 0.075 | zotarolimus 0.004 | idasanutlin 0.026 | alisertib -0.154 | [5] 0.022 | gefitinib -0.125 | [6] 0.129 | lapatinib 0.032 | pictilisib -0.035

YBX1 (UniProt P67809)
inactive: saracatinib -0.027 | sotrastaurin 0.016 | Tubastatin A 0.022 | [1] 0.01 | defactinib 0.301 | rucaparib 0.253 | [2] 0.044 | encorafenib 0.041 | [3] 0.113 | [4] -0.019 | filanesib 0.202 | zotarolimus -0.048 | idasanutlin 0.159 | alisertib -0.066 | [5] -0.054 | gefitinib -0.096 | [6] -0.091 | lapatinib 0.317 | pictilisib 0.033

ZDHHC9 (UniProt Q9Y397)
inactive: pictilisib -0.206
